Experimental data published in paper PMC7067772, “Digenic inheritance of mutations in EPHA2 and SLC26A4 in Pendred syndrome” (Nature Communications, 2020).

Amino acid sequences for entries named in this document (tags omitted). Residues count along the entry.
UniProt Q03145, residues 26-977: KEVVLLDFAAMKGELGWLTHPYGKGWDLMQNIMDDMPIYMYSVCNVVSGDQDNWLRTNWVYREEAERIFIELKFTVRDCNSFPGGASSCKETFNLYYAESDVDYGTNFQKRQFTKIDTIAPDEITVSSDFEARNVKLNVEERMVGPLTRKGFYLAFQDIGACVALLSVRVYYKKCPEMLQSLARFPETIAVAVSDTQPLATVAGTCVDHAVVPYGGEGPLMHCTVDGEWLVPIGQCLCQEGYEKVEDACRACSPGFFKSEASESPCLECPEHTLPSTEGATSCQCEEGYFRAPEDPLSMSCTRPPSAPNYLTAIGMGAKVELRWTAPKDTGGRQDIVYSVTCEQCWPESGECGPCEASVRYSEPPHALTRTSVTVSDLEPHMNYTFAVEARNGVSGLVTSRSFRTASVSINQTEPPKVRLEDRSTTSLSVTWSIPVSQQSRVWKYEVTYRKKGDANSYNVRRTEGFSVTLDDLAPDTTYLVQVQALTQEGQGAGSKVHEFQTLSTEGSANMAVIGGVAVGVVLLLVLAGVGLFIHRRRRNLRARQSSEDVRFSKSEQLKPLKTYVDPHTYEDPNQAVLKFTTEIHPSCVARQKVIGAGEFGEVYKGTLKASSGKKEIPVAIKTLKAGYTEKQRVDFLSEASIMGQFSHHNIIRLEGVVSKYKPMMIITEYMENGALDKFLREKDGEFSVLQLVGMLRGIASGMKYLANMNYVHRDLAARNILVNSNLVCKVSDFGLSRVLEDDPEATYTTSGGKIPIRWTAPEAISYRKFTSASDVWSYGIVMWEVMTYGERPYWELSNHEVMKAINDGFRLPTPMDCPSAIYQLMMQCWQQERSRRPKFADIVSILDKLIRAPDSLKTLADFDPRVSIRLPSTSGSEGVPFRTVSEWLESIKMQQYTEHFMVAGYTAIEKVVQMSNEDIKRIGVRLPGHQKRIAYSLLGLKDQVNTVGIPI

Target: EphA2 (endogenous, mouse tissues) (mouse (endogenous in kidney, thyroid, inner ear)) (UniProt Q03145)
Assay: affinity purification with mass spectrometry; anti-EphA2 antibody immunoprecipitate from adult wild type C57BL/6 mouse kidney lysate against control IgG; in-gel digestion, LC-MS/MS, label free quantification

- binding: binds
B1: Slc26a4 (pendrin) (endogenous, mouse tissues) (protein, UniProt Q9R155 1-780)
chain: MAARGGRSEPPQLAEYSCSYTVSRPVYSELAFQQQRERRLPERRTLRDSLARSCSCSRKRAFGVVKTLLPILDWLPKYRVKEWLLSDIISGVSTGLVGTLQGMAYALLAAVPVQFGLYSAFFPILTYFVFGTSRHISVGPFPVVSLMVGSVVLSMAPDDHFLVPSGNGSALNSTTLDTGTRDAARVLLASTLTLLVGIIQLVFGGLQIGFIVRYLADPLVGGFTTAAAFQVLVSQLKIVLNVSTKNYNGILSIIYTLIEIFQNIGDTNIADFIAGLLTIIVCMAVKELNDRFKHRIPVPIPIEVIVTIIATAISYGANLEKNYNAGIVKSIPSGFLPPVLPSVGLFSDMLAASFSIAVVAYAIAVSVGKVYATKHDYVIDGNQEFIAFGISNVFSGFFSCFVATTALSRTAVQESTGGKTQVAGLISAVIVMVAIVALGRLLEPLQKSVLAAVVIANLKGMFMQVCDVPRLWKQNKTDAVIWVFTCIMSIILGLDLGLLAGLLFALLTVVLRVQFPSWNGLGSVPSTDIYKSITHYKNLEEPEGVKILRFSSPIFYGNVDGFKKCINSTVGFDAIRVYNKRLKALRRIQKLIKKGQLRATKNGIISDIGSSNNAFEPDEDVEEPEELNIPTKEIEIQVDWNSELPVKVNVPKVPIHSLVLDCGAVSFLDVVGVRSLRMIVKEFQRIDVNVYFALLQDDVLEKMEQCGFFDDNIRKDRFFLTVHDAILHLQNQVKSREGQDSLLETVARIRDCKDPLDLMEAEMNAEELDVQDEAMRRLAS

These are yes or no findings as the source states them, for the method shown. In cells and extracts the contact can be indirect. A yes stands for co-enrichment or nearness to the bait. Other partners may have been found.
